Experimental data published in the supplement of paper PMC10849652.
Some of the results follow.

Protein sequences, listed by entry. Tags and fused reporters are not part of them. Lines headed by an entry give the natural chain unless they say otherwise; changes in a name come on top.
UniProt Q5JQC4: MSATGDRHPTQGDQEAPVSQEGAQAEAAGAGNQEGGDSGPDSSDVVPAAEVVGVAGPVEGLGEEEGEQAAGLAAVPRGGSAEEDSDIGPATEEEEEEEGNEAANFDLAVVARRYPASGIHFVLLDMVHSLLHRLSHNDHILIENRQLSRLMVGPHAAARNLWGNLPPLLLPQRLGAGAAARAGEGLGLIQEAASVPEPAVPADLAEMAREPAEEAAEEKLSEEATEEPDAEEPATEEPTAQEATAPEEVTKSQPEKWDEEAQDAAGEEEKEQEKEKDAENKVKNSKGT
UniProt Q6UX04: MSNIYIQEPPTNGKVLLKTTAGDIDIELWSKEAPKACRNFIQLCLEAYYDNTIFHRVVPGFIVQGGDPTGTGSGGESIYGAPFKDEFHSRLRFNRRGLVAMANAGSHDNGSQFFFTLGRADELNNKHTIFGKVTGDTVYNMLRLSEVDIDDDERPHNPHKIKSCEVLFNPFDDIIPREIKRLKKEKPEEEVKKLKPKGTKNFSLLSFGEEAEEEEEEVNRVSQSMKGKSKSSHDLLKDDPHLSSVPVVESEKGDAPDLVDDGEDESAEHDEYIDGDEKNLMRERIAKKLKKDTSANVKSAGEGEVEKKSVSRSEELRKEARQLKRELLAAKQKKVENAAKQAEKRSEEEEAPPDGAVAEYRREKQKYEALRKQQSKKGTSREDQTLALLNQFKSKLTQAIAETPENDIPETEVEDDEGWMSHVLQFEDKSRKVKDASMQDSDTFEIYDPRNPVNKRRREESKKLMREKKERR
UniProt P61962: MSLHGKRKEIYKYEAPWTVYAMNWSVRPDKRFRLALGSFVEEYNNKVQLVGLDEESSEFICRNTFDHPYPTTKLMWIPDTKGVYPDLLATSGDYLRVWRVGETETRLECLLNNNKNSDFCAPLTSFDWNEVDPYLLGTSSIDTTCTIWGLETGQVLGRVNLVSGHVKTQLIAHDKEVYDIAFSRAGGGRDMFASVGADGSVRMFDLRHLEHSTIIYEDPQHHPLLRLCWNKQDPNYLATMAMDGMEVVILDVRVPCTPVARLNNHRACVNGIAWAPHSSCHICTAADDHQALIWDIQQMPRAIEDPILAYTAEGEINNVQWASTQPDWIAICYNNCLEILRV
UniProt P0DMU9: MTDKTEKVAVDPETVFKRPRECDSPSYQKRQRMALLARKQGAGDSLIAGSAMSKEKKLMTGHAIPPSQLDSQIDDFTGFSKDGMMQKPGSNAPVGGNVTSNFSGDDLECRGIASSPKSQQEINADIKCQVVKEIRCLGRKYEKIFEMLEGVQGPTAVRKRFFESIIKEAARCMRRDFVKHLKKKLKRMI
UniProt O43310: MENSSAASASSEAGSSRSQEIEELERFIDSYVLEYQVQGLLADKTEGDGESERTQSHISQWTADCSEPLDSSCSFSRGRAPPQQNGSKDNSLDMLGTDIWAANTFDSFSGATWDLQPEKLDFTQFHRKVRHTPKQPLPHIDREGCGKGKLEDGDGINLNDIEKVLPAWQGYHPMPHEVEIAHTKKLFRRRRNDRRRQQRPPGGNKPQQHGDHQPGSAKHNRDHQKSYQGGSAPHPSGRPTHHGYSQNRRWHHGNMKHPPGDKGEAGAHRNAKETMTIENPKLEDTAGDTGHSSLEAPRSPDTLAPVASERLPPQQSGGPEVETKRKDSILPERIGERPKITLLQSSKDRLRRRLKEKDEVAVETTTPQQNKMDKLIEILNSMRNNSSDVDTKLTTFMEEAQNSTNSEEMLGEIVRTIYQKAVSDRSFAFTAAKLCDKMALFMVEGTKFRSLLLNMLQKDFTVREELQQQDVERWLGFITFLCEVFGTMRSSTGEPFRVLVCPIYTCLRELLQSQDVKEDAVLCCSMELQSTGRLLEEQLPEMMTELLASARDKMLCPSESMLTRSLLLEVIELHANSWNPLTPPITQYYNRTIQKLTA
UniProt Q05048: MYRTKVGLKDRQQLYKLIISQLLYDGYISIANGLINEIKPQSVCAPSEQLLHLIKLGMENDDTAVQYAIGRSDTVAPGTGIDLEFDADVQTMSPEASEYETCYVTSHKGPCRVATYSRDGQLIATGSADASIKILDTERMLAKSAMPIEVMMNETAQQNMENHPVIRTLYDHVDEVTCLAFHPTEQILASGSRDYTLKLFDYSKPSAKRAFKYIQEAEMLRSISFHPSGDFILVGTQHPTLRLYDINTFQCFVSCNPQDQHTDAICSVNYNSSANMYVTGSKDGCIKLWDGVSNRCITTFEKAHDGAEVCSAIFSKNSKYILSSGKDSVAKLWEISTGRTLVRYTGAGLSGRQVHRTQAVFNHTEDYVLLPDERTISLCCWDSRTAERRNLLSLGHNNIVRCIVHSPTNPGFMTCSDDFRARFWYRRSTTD
UniProt Q96F07, whole entry, looked up: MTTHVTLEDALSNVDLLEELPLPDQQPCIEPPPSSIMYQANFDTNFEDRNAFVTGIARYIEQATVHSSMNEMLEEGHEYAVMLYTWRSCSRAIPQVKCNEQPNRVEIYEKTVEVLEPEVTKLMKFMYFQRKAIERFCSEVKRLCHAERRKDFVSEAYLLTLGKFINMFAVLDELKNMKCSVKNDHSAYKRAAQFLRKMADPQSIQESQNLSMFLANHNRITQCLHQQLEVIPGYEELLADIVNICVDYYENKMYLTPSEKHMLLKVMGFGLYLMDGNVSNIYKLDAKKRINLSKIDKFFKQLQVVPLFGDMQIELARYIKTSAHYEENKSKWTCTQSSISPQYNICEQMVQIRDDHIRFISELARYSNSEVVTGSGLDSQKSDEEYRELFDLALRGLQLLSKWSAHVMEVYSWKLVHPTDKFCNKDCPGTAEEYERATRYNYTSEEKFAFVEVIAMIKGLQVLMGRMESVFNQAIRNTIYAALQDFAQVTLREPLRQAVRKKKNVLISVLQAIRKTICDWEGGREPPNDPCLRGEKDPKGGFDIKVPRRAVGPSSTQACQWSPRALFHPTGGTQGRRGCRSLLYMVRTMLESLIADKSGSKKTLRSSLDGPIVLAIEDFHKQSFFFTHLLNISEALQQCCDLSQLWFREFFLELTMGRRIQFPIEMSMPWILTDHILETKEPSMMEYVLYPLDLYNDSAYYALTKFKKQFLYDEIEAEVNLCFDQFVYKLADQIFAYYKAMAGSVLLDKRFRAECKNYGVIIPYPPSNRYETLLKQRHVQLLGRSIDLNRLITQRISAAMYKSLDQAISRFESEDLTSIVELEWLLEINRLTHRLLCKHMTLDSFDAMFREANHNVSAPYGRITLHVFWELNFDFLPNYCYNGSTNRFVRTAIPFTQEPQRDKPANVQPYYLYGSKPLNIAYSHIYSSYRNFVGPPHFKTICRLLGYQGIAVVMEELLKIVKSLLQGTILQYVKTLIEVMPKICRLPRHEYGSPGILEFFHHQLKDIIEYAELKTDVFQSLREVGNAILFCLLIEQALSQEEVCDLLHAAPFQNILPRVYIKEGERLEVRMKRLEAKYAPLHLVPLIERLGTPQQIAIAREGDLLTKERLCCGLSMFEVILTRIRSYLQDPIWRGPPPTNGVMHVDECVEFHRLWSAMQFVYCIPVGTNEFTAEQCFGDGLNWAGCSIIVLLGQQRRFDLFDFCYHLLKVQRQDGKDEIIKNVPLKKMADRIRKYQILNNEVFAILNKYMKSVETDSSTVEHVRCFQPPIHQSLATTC
UniProt Q7L576: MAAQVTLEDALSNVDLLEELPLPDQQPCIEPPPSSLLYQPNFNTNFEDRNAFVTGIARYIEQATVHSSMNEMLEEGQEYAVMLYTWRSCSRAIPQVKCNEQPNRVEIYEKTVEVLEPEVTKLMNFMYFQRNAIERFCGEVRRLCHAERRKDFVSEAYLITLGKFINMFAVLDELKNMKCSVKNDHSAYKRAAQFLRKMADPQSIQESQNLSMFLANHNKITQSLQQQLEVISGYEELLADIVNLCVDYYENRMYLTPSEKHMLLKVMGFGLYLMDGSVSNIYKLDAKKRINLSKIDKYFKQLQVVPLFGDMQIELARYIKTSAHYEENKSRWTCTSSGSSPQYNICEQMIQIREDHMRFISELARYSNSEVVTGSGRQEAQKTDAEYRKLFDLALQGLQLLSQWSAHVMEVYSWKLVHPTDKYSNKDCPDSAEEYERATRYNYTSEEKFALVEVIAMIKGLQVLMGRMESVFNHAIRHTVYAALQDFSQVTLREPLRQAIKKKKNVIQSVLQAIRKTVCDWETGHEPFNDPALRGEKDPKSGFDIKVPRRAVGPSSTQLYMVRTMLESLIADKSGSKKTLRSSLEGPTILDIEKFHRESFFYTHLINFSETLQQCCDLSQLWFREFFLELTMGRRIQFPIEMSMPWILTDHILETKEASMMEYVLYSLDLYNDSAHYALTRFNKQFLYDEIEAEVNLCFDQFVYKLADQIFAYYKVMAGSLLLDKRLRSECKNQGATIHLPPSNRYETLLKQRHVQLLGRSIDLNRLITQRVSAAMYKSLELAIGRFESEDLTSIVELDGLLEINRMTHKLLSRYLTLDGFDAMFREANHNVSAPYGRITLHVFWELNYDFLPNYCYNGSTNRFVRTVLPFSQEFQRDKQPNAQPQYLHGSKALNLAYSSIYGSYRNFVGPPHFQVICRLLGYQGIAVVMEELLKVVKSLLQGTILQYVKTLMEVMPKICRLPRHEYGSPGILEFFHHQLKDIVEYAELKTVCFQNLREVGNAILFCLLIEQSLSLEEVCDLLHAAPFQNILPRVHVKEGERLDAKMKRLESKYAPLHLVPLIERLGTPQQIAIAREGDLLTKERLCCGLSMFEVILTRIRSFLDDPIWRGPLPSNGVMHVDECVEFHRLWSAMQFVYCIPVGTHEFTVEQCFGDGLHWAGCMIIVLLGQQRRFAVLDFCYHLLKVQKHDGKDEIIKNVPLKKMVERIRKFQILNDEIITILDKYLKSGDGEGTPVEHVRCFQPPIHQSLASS
UniProt Q9UK59: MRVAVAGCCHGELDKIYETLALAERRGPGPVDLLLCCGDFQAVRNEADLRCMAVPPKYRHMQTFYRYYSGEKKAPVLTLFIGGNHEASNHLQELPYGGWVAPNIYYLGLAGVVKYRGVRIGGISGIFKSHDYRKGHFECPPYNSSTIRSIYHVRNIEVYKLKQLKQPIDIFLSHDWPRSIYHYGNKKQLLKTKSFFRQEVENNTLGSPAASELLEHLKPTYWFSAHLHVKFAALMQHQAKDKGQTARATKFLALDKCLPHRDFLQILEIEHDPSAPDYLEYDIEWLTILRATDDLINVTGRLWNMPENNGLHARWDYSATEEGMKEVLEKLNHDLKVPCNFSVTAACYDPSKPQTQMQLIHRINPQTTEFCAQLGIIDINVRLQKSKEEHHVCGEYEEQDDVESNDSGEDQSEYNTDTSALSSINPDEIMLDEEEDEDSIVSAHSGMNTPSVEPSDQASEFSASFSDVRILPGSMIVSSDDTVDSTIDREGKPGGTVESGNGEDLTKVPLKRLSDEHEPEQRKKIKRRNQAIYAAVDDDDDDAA
UniProt Q2VPK5: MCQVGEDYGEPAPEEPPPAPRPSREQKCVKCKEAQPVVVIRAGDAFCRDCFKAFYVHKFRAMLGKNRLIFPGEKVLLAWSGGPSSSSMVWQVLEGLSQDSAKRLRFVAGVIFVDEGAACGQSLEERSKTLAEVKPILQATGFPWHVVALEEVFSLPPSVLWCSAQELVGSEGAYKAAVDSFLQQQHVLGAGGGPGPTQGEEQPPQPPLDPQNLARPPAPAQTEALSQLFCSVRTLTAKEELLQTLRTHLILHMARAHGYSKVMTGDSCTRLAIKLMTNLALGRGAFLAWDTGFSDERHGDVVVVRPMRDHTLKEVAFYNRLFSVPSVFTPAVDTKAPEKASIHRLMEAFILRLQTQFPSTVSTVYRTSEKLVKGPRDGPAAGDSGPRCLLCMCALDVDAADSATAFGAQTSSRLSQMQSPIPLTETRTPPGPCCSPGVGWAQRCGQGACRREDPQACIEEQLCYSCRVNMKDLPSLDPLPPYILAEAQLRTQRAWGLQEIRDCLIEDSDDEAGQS
UniProt Q01459: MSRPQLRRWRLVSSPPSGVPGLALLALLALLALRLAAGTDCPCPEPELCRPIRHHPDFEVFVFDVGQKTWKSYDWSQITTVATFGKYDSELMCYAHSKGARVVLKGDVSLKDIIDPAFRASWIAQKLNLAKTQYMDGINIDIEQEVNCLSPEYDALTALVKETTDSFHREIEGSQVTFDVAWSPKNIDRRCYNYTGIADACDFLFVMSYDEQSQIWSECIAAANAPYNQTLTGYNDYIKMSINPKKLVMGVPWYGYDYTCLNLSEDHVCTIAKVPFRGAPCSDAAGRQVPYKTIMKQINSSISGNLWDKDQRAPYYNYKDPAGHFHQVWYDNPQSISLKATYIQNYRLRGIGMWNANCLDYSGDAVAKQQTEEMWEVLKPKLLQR

The targets below were run with CCCS(=O)(=O)Nc1ccc(F)c(C(=O)c2c[nH]c3ncc(Cl)cc23)c1F (assay: log2 fold change, soluble protein after heating vs DMSO (PISA); higher = thermal stabilisation; K562 cells, 10 uM, 30 min; active = over 0.2 and 3.5 SD of the protein, either way, in both replicates (recomputed)).
Summary of the method: (§1)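 K562 cells at 2×10^6 cells/mL were treated with 10 μM compound for 30 min. Aliquots were heated for 3 min across 48°C-58°C, pooled, and extracted in PBS with 0.5% NP-40 at 4°C; soluble protein was the supernatant after 21,000xg for 90 min. Soluble protein was quantified by TMTpro 16plex LC-MS/MS with channel sums equalised, and reported as log2 fold change in thermal stability against DMSO controls, with values from duplicates.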

log2 fold change, inactive:
CT47A1 (UniProt Q5JQC4) 0.023
CWC27 (UniProt Q6UX04) 0.112
CYB5B, A0A499FJ32 0.176
CUX1 isoform 2 (UniProt Q13948) 0.077
CYB5R4 (UniProt Q7L1T6) -0.008
CYHR1 (UniProt E9PJD7) -0.039
DCAF7 (UniProt P61962) -0.002
CT45A10 (UniProt P0DMU9) -0.091
CTPS1 (UniProt P17812) 0.004
CTH (UniProt P32929) 0.019
CTNNA2 (UniProt P26232) -0.004
CUL1 (UniProt Q13616) 0.011
CTSL (UniProt P07711) -0.05
CTNNB1 (UniProt P35222) -0.002
CYB5R3 isoform 3 (UniProt P00387) -0.026
CUTA isoform 2 (UniProt O60888) 0.044
CTIF isoform 2 (UniProt O43310) 0.038
CUL3 (UniProt Q13618) 0.036
CUL2 isoform 2 (UniProt Q13617) 0.056
CST3 (UniProt P01034) -0.135
DAG1 (UniProt Q14118) -0.06
D2HGDH (UniProt Q8N465) 0.005
CTSV (UniProt O60911) -0.006
CSTF1 (UniProt Q05048) -0.033
CYB5R1 (UniProt Q9UHQ9) 0.01
CTBP1 (UniProt Q13363) -0.056
CYFIP2 (UniProt Q96F07) -0.018
CUEDC2 (UniProt Q9H467) 0.032
CXorf56 (UniProt Q9H5V9) -0.02
CSPP1 (UniProt Q1MSJ5) -0.067
DCAF15 (UniProt Q66K64) 0.06
CSTF3 (UniProt Q12996) -0.008
CYFIP1 (UniProt Q7L576) 0.019
DCTN3 (UniProt O75935) 0.025
DBR1 (UniProt Q9UK59) 0.037
CYC1 (UniProt P08574) 0.03
CTU2 (UniProt Q2VPK5) 0.031
CTBS (UniProt Q01459) -0.017
DCAF10 (UniProt Q5QP82) 0.002
CTTN (UniProt Q14247) -0.028

Each target was assayed with CCCc1cc(C)[nH]c(=O)c1CNC(=O)c1cc(-c2ccnc(N3CCN(C)CC3)c2)cc2c1cnn2C(C)C in the same assay as above.
Summary of the method: as §1

log2 fold change, inactive:
CT47A1 (UniProt Q5JQC4) 0.06
CWC27 (UniProt Q6UX04) 0.009
CYB5B, A0A499FJ32 -0.123
CUX1 isoform 2 (UniProt Q13948) -0.011
CYB5R4 (UniProt Q7L1T6) -0.074
CYHR1 (UniProt E9PJD7) -0.001
DCAF7 (UniProt P61962) -0.02
CT45A10 (UniProt P0DMU9) 0.071
CTPS1 (UniProt P17812) -0.021
CTH (UniProt P32929) -0.05
CTNNA2 (UniProt P26232) 0.083
CUL1 (UniProt Q13616) -0.045
CTSL (UniProt P07711) 0.033
CTNNB1 (UniProt P35222) -0.134
CYB5R3 isoform 3 (UniProt P00387) -0.021
CUTA isoform 2 (UniProt O60888) 0.16
CTIF isoform 2 (UniProt O43310) -0.024
CUL3 (UniProt Q13618) -0.019
CUL2 isoform 2 (UniProt Q13617) -0.051
CST3 (UniProt P01034) 0
DAG1 (UniProt Q14118) -0.028
D2HGDH (UniProt Q8N465) 0.047
CTSV (UniProt O60911) -0.062
CSTF1 (UniProt Q05048) -0.066
CYB5R1 (UniProt Q9UHQ9) -0.025
CTBP1 (UniProt Q13363) -0.069
CYFIP2 (UniProt Q96F07) -0.003
CUEDC2 (UniProt Q9H467) -0.01
CXorf56 (UniProt Q9H5V9) 0.015
CSPP1 (UniProt Q1MSJ5) -0.071
DCAF15 (UniProt Q66K64) -0.031
CSTF3 (UniProt Q12996) -0.029
CYFIP1 (UniProt Q7L576) 0.006
DCTN3 (UniProt O75935) 0.012
DBR1 (UniProt Q9UK59) -0.033
CYC1 (UniProt P08574) 0.058
CTU2 (UniProt Q2VPK5) -0.071
CTBS (UniProt Q01459) 0.017
DCAF10 (UniProt Q5QP82) -0.121
CTTN (UniProt Q14247) -0.045
